Test results published in article PMC7819943, “Rice protein-binding microarrays: a tool to detect cis-acting elements near promoter regions in rice”.
This is one part of the list.

By UniProt entry, the sequences of proteins in these tests, tags left out.
UniProt Q0JBA9, entry or part of it: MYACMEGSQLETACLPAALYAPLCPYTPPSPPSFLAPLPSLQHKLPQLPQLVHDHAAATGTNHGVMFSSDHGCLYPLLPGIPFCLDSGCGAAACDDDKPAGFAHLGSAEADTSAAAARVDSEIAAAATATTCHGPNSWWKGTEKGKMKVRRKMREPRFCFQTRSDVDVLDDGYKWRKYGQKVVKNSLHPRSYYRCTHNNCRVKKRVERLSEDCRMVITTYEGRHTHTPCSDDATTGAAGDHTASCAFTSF

Each sequence was assayed against OsWRKY34 (Oryza sativa, UniProt Q0JBA9 1-250) (assay: protein-binding microarray (RPBM); PBS, 2% BSA, 51.3 ng/ul salmon testes DNA, 50 uM zinc acetate, 200 nM TF, 25 C, 1 h; high values mean tight binding). Conditions: protein: recombinant; tags: N-terminal polyhistidine and DsRed monomer fusion (pET32a); label: CyDye5-dUTP incorporated in the synthesized complementary strand; 3' TTTTT single-stranded linker to array surface; dsDNA, one strand shown.
How it was run: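 A custom Agilent array was converted to double-stranded form by primer extension with Cy5-dUTP and blocked with 2% BSA. Protein at 200 nM in PBS with 2% BSA, salmon testes DNA and 50 µM zinc acetate was applied for 1 h at 25 °C, followed by washing. The proteins were polyhistidine–DsRed N-terminal fusions of transcription factors, expressed in E. coli BL21-CodonPlus and Ni–NTA-purified. The binding signal is per-feature fluorescence intensity (arbitrary units) from an Axon 4000B scanner.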
With “AAGAAATCATCATCATCTCACGCATTTCTTGCTCGAATTCCGGAGTCACCTAGTGCAG” the binding signal was 8890 fluorescence intensity (a.u.). “CTGTGGAGTGTGTGCTAGTATTGTCCGGCCGGCTTCGTGCCGGAGTCACCTAGTGCAG” was tested, and the binding signal was 9800 fluorescence intensity (a.u.). For “ACAGGGTTCAGAGATCATATAATAACTTGTTTTCCATGTCCGGAGTCACCTAGTGCAG”, the binding signal was 8990 fluorescence intensity (a.u.). For “TTTGGTTGTCTCTGTGGTGTTTTGTTTGGTAAAATTTTTGCGGAGTCACCTAGTGCAG”, the binding signal was 8290 fluorescence intensity (a.u.). In the case of “GGTGTTGCCTGCGCGCTAGCCGTCGCATTGTTCATCGGGTCGGAGTCACCTAGTGCAG”, the binding signal is reported as 8570 fluorescence intensity (a.u.). In the case of “ACTCATGGATGCAGGTCCACCTACATACGTACTACCACAACGGAGTCACCTAGTGCAG”, the binding signal is reported as 8570 fluorescence intensity (a.u.). In the case of “AATCTTTCGCTGCGTTCTTGCGCGCGTGTGTGAGCAGGGGCGGAGTCACCTAGTGCAG”, the binding signal is reported as 8210 fluorescence intensity (a.u.). In the case of “ATCATATCTCTTATAATTGGTTTTTCTCCTATATATAGTACGGAGTCACCTAGTGCAG”, the binding signal is reported as 9790 fluorescence intensity (a.u.). With “ATAAAACGAATGGTCAAACGTTAGTCGAAAAGTCAACGGTCGGAGTCACCTAGTGCAG” the binding signal was 14000 fluorescence intensity (a.u.). For “AGCTCTGTTTCTAGCATGTTGGTTTTGCTTCTTGCATTCACGGAGTCACCTAGTGCAG”, the binding signal was 12600 fluorescence intensity (a.u.). With “ACTTTTTAATGCTTACTTCATTCATTTGTACTCTCAAATACGGAGTCACCTAGTGCAG” the binding signal was 9390 fluorescence intensity (a.u.). “ATTGGTCGTCTTGCTGAGCTCTCGTACTTGGATCTCTCTACGGAGTCACCTAGTGCAG” was tested, and the binding signal was 11100 fluorescence intensity (a.u.). In the case of “TGCGATCAGCTAGCAATTCACTGGCCATCATCGTCGATCACGGAGTCACCTAGTGCAG”, the binding signal is reported as 8240 fluorescence intensity (a.u.). “ACACCACGGAGGAGGCGGAGGAGGCAGCGTGGGGATGGGGCGGAGTCACCTAGTGCAG” was tested, and the binding signal was 9730 fluorescence intensity (a.u.). With “TGCGTGGTTTGCAAGGGTCTATATTTTGTTGCACCCTTTTCGGAGTCACCTAGTGCAG” the binding signal was 10500 fluorescence intensity (a.u.). “TAACCTTTTTGTGAACTTTCTTTTATTTTTCCCATAGCATCGGAGTCACCTAGTGCAG” was tested, and the binding signal was 10700 fluorescence intensity (a.u.). For “CGCTTTGGTTTCTCTCTCTCTTTGCAGCCGCCGCCGCCGCCGGAGTCACCTAGTGCAG”, the binding signal was 10800 fluorescence intensity (a.u.). “TCTCCGTTTTCGATCCGACGTCCAACATCCACTTTCTCAACGGAGTCACCTAGTGCAG” was tested, and the binding signal was 11900 fluorescence intensity (a.u.). With “AGTATCACCTTTTTTTTAATATCTGCGTGTTTTTTCACATCGGAGTCACCTAGTGCAG” the binding signal was 9810 fluorescence intensity (a.u.). For “CCTCGCCTCGCCACGCCACGCCACGCCGCCGAAATTTCATCGGAGTCACCTAGTGCAG”, the binding signal was 9110 fluorescence intensity (a.u.). “ATACTCTACAAATATCCTATTTGGTTACAGCCCATTGACGCGGAGTCACCTAGTGCAG” was tested, and the binding signal was 8400 fluorescence intensity (a.u.). For “ATTCCATGCATTTGACCTAGTTAGTTCTACACCTTACATCCGGAGTCACCTAGTGCAG”, the binding signal was 9220 fluorescence intensity (a.u.). For “ATCACCGTCACTTTTACTCTGTTAGATACCGTTAATTTTGCGGAGTCACCTAGTGCAG”, the binding signal was 8920 fluorescence intensity (a.u.). For “TGACTTTGACTTTGACTTCCATGCTGCGCTAAGCACTTGGCGGAGTCACCTAGTGCAG”, the binding signal was 9800 fluorescence intensity (a.u.). “TTTCATCGTTTAGTGTCTTACTCCCTTTCCGATGGTCAACCGGAGTCACCTAGTGCAG” was tested, and the binding signal was 9340 fluorescence intensity (a.u.). For “AGTGGCCCTGTCATTTTTCTGTACTTGTTTCTTGTAGAACCGGAGTCACCTAGTGCAG”, the binding signal was 9080 fluorescence intensity (a.u.). “ATATACCGATCCAATCCAGCCTTATGTTTGTACTGTGTTTCGGAGTCACCTAGTGCAG” was tested, and the binding signal was 10500 fluorescence intensity (a.u.). “TTGCTCTCTCTATTTTTTTTCTGGTCCAAGAAGCATTGTCCGGAGTCACCTAGTGCAG” was tested, and the binding signal was 9890 fluorescence intensity (a.u.). “CCTTGATCTGGTCTTCTTTTCTGTGATTTCCTTTTACTTTCGGAGTCACCTAGTGCAG” was tested, and the binding signal was 8260 fluorescence intensity (a.u.). For “CCAGTATTGATCTCCACAATCTGCATGCTAATCAATCATCCGGAGTCACCTAGTGCAG”, the binding signal was 9830 fluorescence intensity (a.u.). With “AAGTTTGACCTGAGTCAAAGCAGTGTGTACTTTTTTGGGGCGGAGTCACCTAGTGCAG” the binding signal was 9410 fluorescence intensity (a.u.). In the case of “CACACACCCCGTAAGTCCCCATCCGTCGACCAATCCCATCCGGAGTCACCTAGTGCAG”, the binding signal is reported as 8260 fluorescence intensity (a.u.). With “CGGGGCTTATCCCTTCCACCGCCGCTCTCCTCTTCGTCTCCGGAGTCACCTAGTGCAG” the binding signal was 8160 fluorescence intensity (a.u.). “AGTCTGAGCCACCTTTCATTACCCATCCAAGATTCGGTTTCGGAGTCACCTAGTGCAG” was tested, and the binding signal was 8900 fluorescence intensity (a.u.). In the case of “TTCACGGCGACCTCCGCTTTAGCCTGCCCAATCCCAGTTCCGGAGTCACCTAGTGCAG”, the binding signal is reported as 9160 fluorescence intensity (a.u.). For “ACTCCCCTGCGCACCCATCGACGCATTTGCTCTCCGCTCTCGGAGTCACCTAGTGCAG”, the binding signal was 9370 fluorescence intensity (a.u.). For “GTGTCATTTTCAATGCTGCTACTGCTAGTACTACTCCTAGCGGAGTCACCTAGTGCAG”, the binding signal was 9800 fluorescence intensity (a.u.). With “CAAAGACGACGACGACTCATCCGCTTCTTCTTCTTGTTTCCGGAGTCACCTAGTGCAG” the binding signal was 12000 fluorescence intensity (a.u.). In the case of “TGGTCAAATTAGAGTAGTTTGACTTTGACCAAAGTCCAAACGGAGTCACCTAGTGCAG”, the binding signal is reported as 12300 fluorescence intensity (a.u.). In the case of “ATCGATCTAGCTCTTAATTAGCTCTGCATGAGTTTCGCGCCGGAGTCACCTAGTGCAG”, the binding signal is reported as 8490 fluorescence intensity (a.u.). With “TTCTTCCCTCATCTCTTTGGGTTTTGTCTTATATGGCTGACGGAGTCACCTAGTGCAG” the binding signal was 8740 fluorescence intensity (a.u.). For “GAACACCAACGACACGGTTCACAGGCAACCAACTTTGACCCGGAGTCACCTAGTGCAG”, the binding signal was 9140 fluorescence intensity (a.u.).
